Some of the results follow. Most values lie at the level of the controls, where differences are scatter.
The targets below were run with CN[C@@H]1C[C@H]2O[C@@](C)([C@@H]1OC)n1c3ccccc3c3c4c(c5c6ccccc6n2c5c31)C(=O)NC4 [staurosporine] (assay: log2 fold change of tryptic peptide abundance, ligand vs vehicle (limited proteolysis) (log2 ratio); higher = more trypsin-susceptible (destabilized)). Conditions: ligand concentration: 20 uM; sample: mouse liver crude lysate; replicate design: treated separately.

By UniProt entry, the sequences of proteins in these tests, tags left out. Where a name states a change or a piece, a line headed by the entry shows the natural chain unless it says otherwise.
UniProt Q60590: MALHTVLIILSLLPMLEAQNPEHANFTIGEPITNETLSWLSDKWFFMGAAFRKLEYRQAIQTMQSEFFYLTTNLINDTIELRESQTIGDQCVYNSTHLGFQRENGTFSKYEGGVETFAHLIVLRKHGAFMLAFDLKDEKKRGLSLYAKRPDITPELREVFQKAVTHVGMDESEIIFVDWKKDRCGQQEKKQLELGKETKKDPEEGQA
UniProt Q5SW75: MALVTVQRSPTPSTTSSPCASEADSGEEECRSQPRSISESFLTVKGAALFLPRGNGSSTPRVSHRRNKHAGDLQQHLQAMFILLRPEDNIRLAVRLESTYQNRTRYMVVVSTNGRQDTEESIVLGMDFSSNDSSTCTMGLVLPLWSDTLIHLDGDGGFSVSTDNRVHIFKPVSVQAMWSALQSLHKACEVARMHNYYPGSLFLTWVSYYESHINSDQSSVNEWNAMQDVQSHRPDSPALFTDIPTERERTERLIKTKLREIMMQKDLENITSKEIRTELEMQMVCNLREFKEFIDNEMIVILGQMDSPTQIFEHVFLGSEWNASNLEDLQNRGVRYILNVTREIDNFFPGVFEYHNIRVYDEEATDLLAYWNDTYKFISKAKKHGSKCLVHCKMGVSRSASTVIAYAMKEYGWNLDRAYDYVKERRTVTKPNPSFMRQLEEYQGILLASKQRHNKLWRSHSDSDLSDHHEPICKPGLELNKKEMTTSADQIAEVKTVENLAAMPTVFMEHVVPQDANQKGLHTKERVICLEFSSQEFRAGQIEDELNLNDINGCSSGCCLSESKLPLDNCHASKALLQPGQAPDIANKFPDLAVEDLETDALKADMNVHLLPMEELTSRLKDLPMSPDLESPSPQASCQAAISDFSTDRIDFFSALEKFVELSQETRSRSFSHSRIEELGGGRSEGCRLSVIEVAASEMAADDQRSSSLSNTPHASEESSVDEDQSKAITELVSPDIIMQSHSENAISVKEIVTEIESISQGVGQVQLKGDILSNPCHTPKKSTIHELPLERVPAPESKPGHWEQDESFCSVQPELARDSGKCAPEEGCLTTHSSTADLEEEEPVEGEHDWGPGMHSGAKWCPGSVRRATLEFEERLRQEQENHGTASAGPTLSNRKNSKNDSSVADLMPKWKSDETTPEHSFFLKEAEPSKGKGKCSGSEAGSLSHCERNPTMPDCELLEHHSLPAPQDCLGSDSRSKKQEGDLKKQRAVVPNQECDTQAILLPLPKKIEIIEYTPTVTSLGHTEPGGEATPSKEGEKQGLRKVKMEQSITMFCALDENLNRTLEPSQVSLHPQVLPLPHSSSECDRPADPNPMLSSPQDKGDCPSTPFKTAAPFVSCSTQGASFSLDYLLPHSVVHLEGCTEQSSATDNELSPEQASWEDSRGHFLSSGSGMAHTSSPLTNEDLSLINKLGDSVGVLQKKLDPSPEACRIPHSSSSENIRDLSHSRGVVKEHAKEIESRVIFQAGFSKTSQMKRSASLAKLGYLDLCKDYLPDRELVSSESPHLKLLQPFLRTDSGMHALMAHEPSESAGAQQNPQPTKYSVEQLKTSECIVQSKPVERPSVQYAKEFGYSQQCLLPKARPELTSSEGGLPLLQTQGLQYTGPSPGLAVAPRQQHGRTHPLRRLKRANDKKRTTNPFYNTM
UniProt Q60739: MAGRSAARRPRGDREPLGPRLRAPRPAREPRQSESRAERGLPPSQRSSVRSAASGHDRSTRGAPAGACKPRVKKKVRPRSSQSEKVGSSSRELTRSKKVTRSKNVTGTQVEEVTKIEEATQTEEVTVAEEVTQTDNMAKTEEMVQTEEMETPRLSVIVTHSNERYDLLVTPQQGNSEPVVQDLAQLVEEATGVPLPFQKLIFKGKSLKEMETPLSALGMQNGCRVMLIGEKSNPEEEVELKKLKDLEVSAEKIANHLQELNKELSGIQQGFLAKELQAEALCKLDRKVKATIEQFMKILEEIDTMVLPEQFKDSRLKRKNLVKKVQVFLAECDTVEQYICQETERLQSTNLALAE
UniProt Q5NBU8: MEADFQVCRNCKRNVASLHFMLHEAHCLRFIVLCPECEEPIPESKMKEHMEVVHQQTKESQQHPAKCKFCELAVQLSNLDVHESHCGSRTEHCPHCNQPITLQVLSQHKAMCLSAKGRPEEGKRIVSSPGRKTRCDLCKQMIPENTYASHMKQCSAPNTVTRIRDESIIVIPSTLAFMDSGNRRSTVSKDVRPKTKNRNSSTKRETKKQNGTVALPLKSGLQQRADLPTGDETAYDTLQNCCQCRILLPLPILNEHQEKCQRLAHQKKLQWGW

Row | Target | log2 fold change
1 | UniProt Q60590 (peptide sequence: QLELGKETK, peptide start residue: 191) | -0.105
2 | UniProt Q5SW75 (peptide sequence: YSVEQLK, peptide start residue: 1322) | 0.265
3 | UniProt Q60739 (peptide sequence: ATIEQFMK, peptide start residue: 290) | 0.386
4 | UniProt Q5NBU8 (peptide sequence: KQNGTVALPLK, peptide start residue: 208) | 0.359

Reference: the supplement of paper PMC12819154, “High-throughput peptide-centric local stability assay extends protein–ligand identification to membrane proteins, tissues and bacteria” (Nature Structural & Molecular Biology, 2025)
